Values from PubChem BioAssay AID1259308 (NCATS, 2017)
Here is an unselected part of about 59,000 deposited reagents. About 1,510 of them (2.6%) were called active. 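Calls use total luciferase alone and ignore viability, so some active siRNAs may act by altering cell number.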 A number with no mark means an inactive call. The numbers tell different reagents against one gene apart. Not all columns of the deposit are shown. Reagent sequences are not shown.

- Screen: 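Candidate targets for better recombinant protein yield in mammalian cells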 (primary screen)
- System: human HEK293 embryonic kidney cells stably expressing firefly luciferase (HEK-CMV-Luc2-Hygro)
- Knock-down reagent: single siRNA against human genes, 0.8 pmol siRNA per well
- Duration: 72 h
- Detection: 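Reporter luminescence and viable-cell signal on separate replicate plates, given as percent of non-targeting control and median/MAD z-scores, plus per-cell luciferase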
- Direction: total luciferase, z-score and total luciferase, % of control: higher = more reporter protein produced; luciferase per cell, z-score: higher = more reporter output per viable cell
- Hit rule: 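An siRNA counts as active if its total luciferase robust z-score exceeds 3; genes with two or more such siRNAs out of three were retested with fresh siRNAs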
- Meaning of the calls: active = raised luciferase; inactive = no rise

gene knocked down,reagent,"total luciferase, z-score","total luciferase, % of control","luciferase per cell, z-score"
PDZRN4,1,-0.246,77,-0.419
PDZRN4,2,-3.04,21.4,-5.02
PDZRN4,3,0.451,90.9,0.834
CASK,1,0.199,85.8,0.355
CASK,2,-0.208,77.7,-0.578
CASK,3,0.905,99.9,0.661
GNL1,1,0.215,86.2,-0.281
GNL1,2,-1.33,55.4,-1.12
GNL1,3,-1.13,59.4,-0.719
PTX3,1,1.18,105,0.715
PTX3,2,0.462,91.1,0.633
PTX3,3,0.797,97.7,0.639
SLC25A13,1,0.0278,82.4,0.583
SLC25A13,2,0.535,92.5,-0.0958
SLC25A13,3,-0.811,65.8,-0.634
NLRP10,1,0.263,87.1,0.13
NLRP10,2,-1.93,43.6,-1.34
NLRP10,3,1.14,105,1.88
GABRA5,1,-0.489,72.2,-0.511
GABRA5,2,-0.0688,80.5,-0.24
GABRA5,3,-1.05,61.1,-1.82
GSE1,1,-0.258,76.8,-0.872
GSE1,2,-0.299,75.9,-1.12
GSE1,3,-1.09,60.3,-0.472
RICTOR,1,-0.613,69.7,-0.681
RICTOR,2,-0.477,72.4,-0.347
RICTOR,3,-1.26,56.8,-0.55
CRISP1,1,1.43,110,1.21
CRISP1,2,0.144,84.8,-0.483
CRISP1,3,0.863,99,1.77
NOL8,1,-0.924,63.5,-1.18
NOL8,2,-0.632,69.3,-0.568
NOL8,3,-2.2,38.2,-2.28
TSC2,1,1.52,112,0.316
TSC2,2,-0.251,76.9,0.588
TSC2,3,-1.3,56.1,-1.48
CCL23,1,2.76,137,1.21
CCL23,2,1.37,109,1.51
CCL23,3,2.33,128,1.56
THRAP3P1,1,-0.905,63.9,-0.0352
THRAP3P1,2,0.681,95.4,1.47
THRAP3P1,3,0.927,100,0.0291
TRABD2B,1,0.67,95.2,1.36
TRABD2B,2,-1.99,42.2,-1.94
TRABD2B,3,2.04,122,1.05
CYP3A4,1,2.28,127,0.988
CYP3A4,2,0.758,97,0.519
CYP3A4,3,1.25,107,0.182
FOXO1,1,-0.00929,81.7,-0.791
FOXO1,2,1.41,110,0.52
FOXO1,3,1.33,108,0.469
TFDP2,1,3.19 (active),145,1.86
TFDP2,2,-0.523,71.5,-0.467
TFDP2,3,0.187,85.6,-0.112
TLR8,1,-1.79,46.2,-2.09
TLR8,2,-0.927,63.4,-0.616
TLR8,3,-0.838,65.2,-1.39
CEACAM18,1,0.496,91.7,0.332
CEACAM18,2,-0.885,64.3,1.19
CEACAM18,3,0.244,86.7,0.103
RPL37,1,-2.78,26.5,-1.13
RPL37,2,-2.22,37.7,0.712
RPL37,3,-2.01,41.9,-0.489
SP6,1,-0.149,78.9,0.00868
SP6,2,-2.35,35.2,-1.97
SP6,3,1,102,1.38
PARP12,1,-0.913,63.7,-1.32
PARP12,2,0.0394,82.7,0.0147
PARP12,3,0.254,86.9,0.456
TNFSF8,1,2.02,122,2.41
TNFSF8,2,0.993,102,0.445
TNFSF8,3,-0.675,68.5,0.455
GPR119,1,0.313,88.1,0.543
GPR119,2,-0.762,66.7,-1.23
GPR119,3,0.643,94.7,0.322

Part of the list above in another layout:
gene knocked down | reagent | total luciferase, z-score | total luciferase, % of control | luciferase per cell, z-score
THRAP3P1 | 3 | 0.927 | 100 | 0.0291
TRABD2B | 1 | 0.67 | 95.2 | 1.36
TRABD2B | 2 | -1.99 | 42.2 | -1.94
TRABD2B | 3 | 2.04 | 122 | 1.05
CYP3A4 | 1 | 2.28 | 127 | 0.988
